Results deposited as PubChem BioAssay AID652243 (Drosophila RNAi Screening Center, 2013)

Assay: 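Knock-downs that decrease or increase androgen receptor reporter signal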 (primary screen)
System: Drosophila S2R+ cells
Reagent: long dsRNA against Drosophila genes
Duration: 72 h (48 h, then 24 h hormone)
Challenge: synthetic androgen R1881 at 10 nM for 24 h
Read-out: 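Per-well raw luminescence of the androgen-driven firefly reporter and of the Renilla control, two replicates each, without normalisation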
Scale: firefly reporter light: higher = more light from androgen-responsive reporter; Renilla control light: higher = more constitutive control signal (cell number, transfection)
Hit rule: 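Across duplicate plates, a knock-down whose log firefly/Renilla ratio shifted a set fold down or up from the GFP/LacZ control mean was a hit; the downward cut appears as both 1.5 and 3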
Calls: active = hit: reporter lowered or raised; inactive = no hit
The deposit covers about 24,000 reagents; this is an unselected part of those that have a named target and a result. Of all reagents, 246 (1%) are marked active. 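Plates not normalised; calls are printed but the firefly/Renilla ratio behind them is not deposited; fold cut for lowering reported inconsistently.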 The raw values are shown without normalisation. Entries without a mark were called inactive. A plus sign joins genes that one reagent is predicted to hit. Not stated in the record: the amount of reagent.

What did the screen give for CG12194 [DRSC00345]?
firefly reporter light, replicate 1: 87330; firefly reporter light, replicate 2: 69106; Renilla control light, replicate 1: 4.60e5; Renilla control light, replicate 2: 4.67e5

For CG12194 [DRSC24918], what does the deposit list?
firefly reporter light, replicate 1: 1.06e6; firefly reporter light, replicate 2: 1.14e6; Renilla control light, replicate 1: 1.20e6; Renilla control light, replicate 2: 1.16e6

What is on record for tld [DRSC17084]?
firefly reporter light, replicate 1: 2.59e5; firefly reporter light, replicate 2: 2.34e5; Renilla control light, replicate 1: 2.22e6; Renilla control light, replicate 2: 2.51e6

For CG15695 [DRSC15117], how do the results read?
firefly reporter light, replicate 1: 2.94e5; firefly reporter light, replicate 2: 3.44e5; Renilla control light, replicate 1: 3.37e6; Renilla control light, replicate 2: 3.24e6

How did the screen score CG15695 [DRSC29582]?
firefly reporter light, replicate 1: 7.64e5; firefly reporter light, replicate 2: 6.26e5; Renilla control light, replicate 1: 9.87e5; Renilla control light, replicate 2: 9.87e5

What is on record for CG10164 [DRSC14197]?
firefly reporter light, replicate 1: 3.93e5; firefly reporter light, replicate 2: 3.47e5; Renilla control light, replicate 1: 1.95e6; Renilla control light, replicate 2: 3.61e6

How did the screen score CG8119 + asRNA:CR43299 [DRSC27407]?
firefly reporter light, replicate 1: 3.11e5; firefly reporter light, replicate 2: 2.68e5; Renilla control light, replicate 1: 6.38e5; Renilla control light, replicate 2: 6.38e5

3 consecutive entries already listed, quoted:
CG15695 [DRSC15117] — firefly reporter light, replicate 1 = 2.94e5; firefly reporter light, replicate 2 = 3.44e5; Renilla control light, replicate 1 = 3.37e6; Renilla control light, replicate 2 = 3.24e6
CG15695 [DRSC29582] — firefly reporter light, replicate 1 = 7.64e5; firefly reporter light, replicate 2 = 6.26e5; Renilla control light, replicate 1 = 9.87e5; Renilla control light, replicate 2 = 9.87e5
CG10164 [DRSC14197] — firefly reporter light, replicate 1 = 3.93e5; firefly reporter light, replicate 2 = 3.47e5; Renilla control light, replicate 1 = 1.95e6; Renilla control light, replicate 2 = 3.61e6

The listing continues.
For CG17177 [DRSC10257], how do the results read?
firefly reporter light, replicate 1: 2.75e5; firefly reporter light, replicate 2: 2.73e5; Renilla control light, replicate 1: 2.64e6; Renilla control light, replicate 2: 2.47e6

What did the screen give for CAH3 [DRSC17776]?
firefly reporter light, replicate 1: 1.67e5; firefly reporter light, replicate 2: 2.92e5; Renilla control light, replicate 1: 2.29e6; Renilla control light, replicate 2: 3.23e6

What is on record for Jon25Biii [DRSC03115]?
firefly reporter light, replicate 1: 1.42e5; firefly reporter light, replicate 2: 76803; Renilla control light, replicate 1: 2.23e6; Renilla control light, replicate 2: 1.22e6

For Jon25Biii [DRSC25069], what was measured?
firefly reporter light, replicate 1: 7.85e5; firefly reporter light, replicate 2: 5.53e5; Renilla control light, replicate 1: 6.54e5; Renilla control light, replicate 2: 6.10e5

With CG6836 [DRSC10722], how do the results read?
firefly reporter light, replicate 1: 27204; firefly reporter light, replicate 2: 30899; Renilla control light, replicate 1: 6.43e5; Renilla control light, replicate 2: 4.13e5

Which result is listed for CG6836 [DRSC26906]?
firefly reporter light, replicate 1: 3.89e5; firefly reporter light, replicate 2: 3.29e5; Renilla control light, replicate 1: 5.00e5; Renilla control light, replicate 2: 4.74e5

How did the screen score unc-4 [DRSC20381]?
firefly reporter light, replicate 1: 2.41e5; firefly reporter light, replicate 2: 3.66e5; Renilla control light, replicate 1: 2.44e6; Renilla control light, replicate 2: 2.71e6

What is on record for unc-4 [DRSC22074]?
firefly reporter light, replicate 1: 5.31e5; firefly reporter light, replicate 2: 5.98e5; Renilla control light, replicate 1: 2.50e6; Renilla control light, replicate 2: 2.15e6

Which result is listed for unc-4 [DRSC25459]?
firefly reporter light, replicate 1: 7.20e5; firefly reporter light, replicate 2: 6.75e5; Renilla control light, replicate 1: 1.43e6; Renilla control light, replicate 2: 6.82e5

Which result is listed for Arp6 [DRSC19326]?
firefly reporter light, replicate 1: 1.16e5; firefly reporter light, replicate 2: 1.45e5; Renilla control light, replicate 1: 1.06e6; Renilla control light, replicate 2: 1.01e6

With CG42788 [DRSC15330], what does the deposit list?
firefly reporter light, replicate 1: 1.91e5; firefly reporter light, replicate 2: 1.08e5; Renilla control light, replicate 1: 2.25e6; Renilla control light, replicate 2: 2.36e6

With CG42788 [DRSC16139], how do the results read?
firefly reporter light, replicate 1: 79410; firefly reporter light, replicate 2: 1.06e5; Renilla control light, replicate 1: 1.33e6; Renilla control light, replicate 2: 1.47e6

With CG42788 [DRSC16152], what was measured?
firefly reporter light, replicate 1: 87644; firefly reporter light, replicate 2: 1.01e5; Renilla control light, replicate 1: 1.48e6; Renilla control light, replicate 2: 1.79e6

With CG42788 [DRSC27590], what does the deposit list?
firefly reporter light, replicate 1: 3.00e5; firefly reporter light, replicate 2: 2.99e5; Renilla control light, replicate 1: 4.47e5; Renilla control light, replicate 2: 7.40e5
